## Results of single-concentration screens

A: 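Whole-cell growth test on Mycobacterium tuberculosis, read after 3 days in glucose-containing 7H9 medium; the read-out is not stated. Tested at 500 µM. Direction is inferred from retests: higher values go with more growth inhibition. About 18,000 compounds were tested under these conditions; 7.9% (about 1,400) showed 50% or more at least once.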
B: 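Growth of Mycobacterium tuberculosis over 4 days (cholesterol / DPPC medium with tyloxapol); the read-out is not stated. Compounds at 500 µM. Higher reads as more growth inhibition (inferred: compounds with an IC50 in retests scored well above the rest). Of about 18,000 compounds tested this way, about 900 (5%) reached 50% or more in at least one test.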

The filed quantity is “Percent Effect” (%). How 0% and 100% were set is not recorded. Most values in the screen are low, and negative values occur. Compounds were drawn at random from those tested, without regard to their results.

| structure | A | B |
|---|---|---|
| `CCC(CC)C(=O)Nc1ccc2c(c1)NC(=O)C(C)O2` (centres unmarked) | 26.34 | 8.144 |
| `CCS(=O)(=O)NCCNC(=O)c1cc(C)cc(Br)c1` | 2.728 | 7.578 |
| `CCNC(=O)C(CCSC)NC(=O)Cc1ccccc1` (centres unmarked) | 9.171 | -6.496 |
| `CN(C)CCCOc1ccccc1CO` | -3.067 | -0.1974 |
| `O=C(NCc1ccc2sccc2c1)C1CNCCO1` (centres unmarked) | 36.55 | 23.57 |
| `NCCc1n[nH]c(=O)n1CCc1ccccc1` | 11.21 | 3.947 |
| `CCCOc1cc(C)ccc1NC(=O)Cn1cnnn1` | 41.47 | 56.13 |
| `CC1(C#N)CCN(CCn2cc(Cl)cn2)CC1` | 13.89 | 18.2 |
| `NC(=O)CCS(=O)(=O)CCN1CCOCC1` | 24.89 | 8.838 |
| `OCCc1cnn(-c2ccc(F)cn2)c1` | 13.35 | 5.622 |
| `CCN(CC1CCOC1)S(=O)(=O)c1cnn(C)c1` (centres unmarked) | 4.672 | -13.03 |
| `Cc1cc(Cl)ccc1NC(=O)CSc1n[nH]c(N)n1` | 52.24 | 32.45 |
| `CCn1cc(C(=O)Nc2ccc(Br)cn2)cn1` | 0.4415 | 12.84 |
| `Oc1ncccc1F` | -8.18 | -15.41 |
| `Cc1ccc(Cl)cc1NC(=O)CN1CCC(O)CC1` | 29.81 | 32.36 |
| `CCC(CC)(CN)C(=O)N1CCSCC1` | 8.302 | 12.83 |
| `COc1ccc(S(=O)(=O)N2CCC(=O)C(C)C2)cc1C` (centres unmarked) | 25.3 | 30.52 |
| `CCCN(C)C(=O)Cn1ccc(=O)[nH]c1=O` | 12.51 | -1.342 |
| `NC(=O)c1c[nH]cn1` | -5.043 | -9.752 |
| `COc1cccc(CC2(O)CCNCC2)c1` | 0.7364 | -5.09 |
| `CC(OC(=O)c1ccc2c(c1)OCO2)C(=O)NC1CC1` (centres unmarked) | 0.9868 | -1.749 |
| `CC(O)CN(C)Cc1ccc(N2CCCC2)nc1` (centres unmarked) | 0.8016 | -14.11 |
| `CCN(C)C(=O)c1ccc(-n2cncn2)cc1` | 6.876 | 4.313 |
| `CCn1nc(C(C)C)cc1C(=O)N1CCC(N)C1` (centres unmarked) | 5.896 | 13.19 |
| `CCOc1cccc(NC(=O)NC(C)(C)CCO)c1` | 37.84 | 27.49 |
| `Cc1ccc(CN(C)C(=O)CNC(=O)c2ccoc2)o1` | 33.39 | 37.21 |
| `COc1ccc(OCCN2CCC(O)CC2)cc1` | 4.882 | 13.2 |
| `COc1cc(F)ccc1N(C)CC(=O)N1CCCC1` | -2.99 | -14.87 |
| `CCNC(=O)C1CN(c2ccc(S(C)(=O)=O)cc2)C1` | 1.725 | -0.8843 |
| `Cn1nc(C(N)=O)c2ccccc21` | 8.42 | -0.05333 |
| `NCc1ccc(N2CC=CC2)cc1` | 38.25 | 34.79 |
| `N#CCOC(=O)c1ccccc1SC1CCS(=O)(=O)C1` (centres unmarked) | -10.53 | -12.51 |
| `C[C@@H]1CCN[C@H](CN)C1` | -5.905 | -14.15 |
| `CC(C)OCCCNC(=O)CNC(=O)C1CCCCC1` | 3.741 | 14.43 |
| `Cc1nn(C)c(N(C)C)c1CNC(C)c1ccccn1` (centres unmarked) | 11.56 | 9.509 |
| `C=C(C)COc1cccc(F)c1C(N)=O` | -4.386 | -20.89 |
| `CN(C)CCNC(=O)c1ccc(CN)cc1` | 1.446 | -2.798 |
| `COC(=O)CNc1ccccc1` | 55.83 | 29.46 |
| `CCCn1ccnc1CNC(=O)C(O)CCSC` (centres unmarked) | -11.46 | -2.813 |
| `NCC(CO)Cc1ccccc1Br` (centres unmarked) | 42.02 | 18.91 |
| `O=C(NCc1ccc(Br)o1)[C@@H]1CCCO1` | 62.05 | 49.02 |
| `COCC(N)c1ccco1` (centres unmarked) | 21.4 | 5.094 |
| `O=C(c1ccccn1)N1CCC2(CCCCO2)CC1` | 35.6 | 9.517 |
| `Cc1ccnc(NC(=O)N[C@H](CO)C(C)C)c1` | 27.1 | 17.86 |
| `OC[C@H]1CN(Cc2c[nH]cn2)C[C@H]1CN1CCCCC1` | 17.46 | -19.32 |
| `CCNC(=O)[C@H]1Cc2ccccc2CN1` | 31.44 | 18.69 |
| `c1cncc(CN2CCC(C3CCNC3)CC2)c1` (centres unmarked) | 0.9297 | -11.19 |
| `Cc1ccccc1C(=O)OCc1nc(N)nc(N)n1` | 17.26 | 10.84 |
| `Cc1cc(C(=O)NCC(=O)Nc2ccccc2Br)on1` | 35.28 | 5.726 |
| `COCCSCC(=O)Nc1cccc(C#N)c1` | 29.73 | 5.198 |
| `NC(=O)C1CCc2ccccc21` (centres unmarked) | -4.705 | -30.6 |
| `Cn1cc(Br)c(=O)c(NC(=O)c2cc(Cl)ccn2)c1` | 5.704 | -6.693 |
| `Cc1cc(O)nc(C2CC2)n1` | 12.97 | 0.2558 |
| `NC(=O)c1noc2c1CCCC2` | -1.738 | 8.362 |
| `Cc1nn(C)c(Cl)c1C(=O)N1CCC(C(N)=O)CC1` | 9.705 | 6.693 |
| `CC(C)CC(O)C(=O)NCc1cc2ccccc2[nH]1` (centres unmarked) | 54.9 | 24.58 |
| `COc1ccc(C(C)N)cc1OC` (centres unmarked) | 8.421 | 2.38 |
| `COc1ccc(NC(=O)C2CCCN2S(C)(=O)=O)cn1` (centres unmarked) | -72.21 | -76.94 |
| `CNC(=O)c1cccc(CN)n1` | 7.094 | -2.139 |
| `CCCc1cc(C(N)=O)c(NC(=O)c2ccnn2C)s1` | 7.611 | 22.62 |
| `Cc1nnc(N2CCN(CC(C)C)C(=O)C2)o1` | 10.18 | 8.952 |
| `Cc1cccc(C)c1NC(=O)NCC1(O)CCNC1` (centres unmarked) | 3.287 | 4.543 |
| `NCc1ccc(-c2cccnc2)o1` | 20.85 | 8.188 |
| `CC(OC(=O)c1ccn2cncc2c1)C(=O)NC1CC1` (centres unmarked) | -3.012 | -17.51 |
| `Cc1nn(CCNC(=O)C(C)NS(C)(=O)=O)c(C)c1C` (centres unmarked) | 13.72 | 1.308 |
| `CC(C)c1nnc(SCC(N)=O)n1CC1CCCO1` (centres unmarked) | 13.26 | 4.484 |
| `COCCN1CCCC2(CCN(C(=O)C(C)C)C2)C1=O` (centres unmarked) | 9.452 | 9.748 |
| `CN(C)C(=O)C(C)(C)NCC(O)c1ccc(F)c(F)c1` (centres unmarked) | 7.056 | -2.778 |
| `COCc1noc(CN(C(C)C)C(C)C)n1` | 5.371 | 0.6915 |
| `O=C(Cc1ccc2c(c1)OCCO2)Nc1nncs1` | 14.14 | 0.6823 |
| `CC(C)C1c2nccn2CCCN1C(=O)c1cocn1` (centres unmarked) | -6.138 | -15.1 |
| `CC(C)(CNCc1cccnc1)N1CCOCC1` | 15.85 | 17.19 |
| `CCc1nn(C)c(CC)c1S(=O)(=O)N(C)CC(C)O` (centres unmarked) | 1.358 | 8.201 |
| `Cc1n[nH]c(SCC(=O)NCCc2ccccc2)n1` | 24.46 | 12.76 |
| `OCC1CCN(C2CCCC2)C1` (centres unmarked) | -5.295 | -13.68 |

4 of the entries, repeated:

Result for COc1cccc(CC2(O)CCNCC2)c1 was A: 0.7364%; B: -5.09%.
Result for CCCc1cc(C(N)=O)c(NC(=O)c2ccnn2C)s1 was A: 7.611%; B: 22.62%.
Result for CC(OC(=O)c1ccc2c(c1)OCO2)C(=O)NC1CC1 (centres unmarked) was A: 0.9868%; B: -1.749%.
Result for NCCc1n[nH]c(=O)n1CCc1ccccc1 was A: 11.21%; B: 3.947%.

From ChEMBL document CHEMBL3988442, “University of Dundee, Small-Polar-MMV Screening Library” (2021).